In patent US12680074B2, “Antigen presenting T cells, sensitized, manufactured T cells and methods of treatment using the same” (RAPA THERAPEUTICS, LLC, priority 2020, dated 2026):
At least one structure is not confirmed: it was looked up by name or label, or the drawing left a doubt.

Tested on: p62
Assay: Western blot of p62 after 16-hr pre-incubation (FIG. 11)
Format: cell-based, human
Conditions: 1:3 beads, daclizumab, rapamycin 1 μM or temsirolimus 1.0 or 0.1 μM
Method: For FIGS. 11-13, human CD4^+ and CD8^+ T cells were cultured using a 16-hr pre-incubation interval prior to the addition of 3/28 beads at the reduced ratio of 1:3 beads-to-T cells. As indicated in FIGS. 11-13, the various T cell cultures received different methods of mTOR inhibition (rapamycin at 1.0 μM; temsirolimus at 1.0 or 0.1 μM), different conditions of exogenous IL-2 addition, and different conditions relative to addition of the anti-IL-2 receptor monoclonal antibody, daclizumab. After the 16-hr pre-incubation interval, cells were harvested from the T cell cultures, protein was isolated, and p62 (FIG. 11), phospho-RAPTOR (FIG. 12), or BIM (FIG. 13) and the housekeeper gene β-actin were quantified by western blot.

CO[C@H]1C[C@@H]2CC[C@@H](C)[C@@](O)(O2)C(=O)C(=O)N2CCCC[C@H]2C(=O)O[C@H]([C@H](C)C[C@@H]2CC[C@@H](O)[C@H](OC)C2)CC(=O)[C@H](C)/C=C(\C)[C@@H](O)[C@@H](OC)C(=O)[C@H](C)C[C@H](C)/C=C/C=C/C=C/1C [rapamycin]
autophagy marker p62: autophagy could be realized
